Experimental data taken from paper doi:10.1101/2022.11.02.514796.
Results are given in words; binding and its absence hold for the method and conditions named. In cells and extracts the contact can be indirect. Some results given as binding are weak or reduced against the parent protein; the word gives no strength. Sequences can lack the tags named with a protein.

Assays:
SIX1 (human) = target: T1, SIX1 (human) (UniProt Q15475); assay: co-IP
T1 sequence: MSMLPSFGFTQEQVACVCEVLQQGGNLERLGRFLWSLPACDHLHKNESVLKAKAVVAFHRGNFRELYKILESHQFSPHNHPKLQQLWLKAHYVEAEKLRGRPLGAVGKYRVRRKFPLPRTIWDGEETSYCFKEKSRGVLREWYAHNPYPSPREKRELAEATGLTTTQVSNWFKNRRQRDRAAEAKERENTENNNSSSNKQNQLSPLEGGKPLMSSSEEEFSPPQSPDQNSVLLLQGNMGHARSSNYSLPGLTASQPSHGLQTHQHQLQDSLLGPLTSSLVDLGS

SIX1-Q177R (human) = target: T2, SIX1-Q177R (human) (UniProt Q15475); assay: co-IP
T2 sequence: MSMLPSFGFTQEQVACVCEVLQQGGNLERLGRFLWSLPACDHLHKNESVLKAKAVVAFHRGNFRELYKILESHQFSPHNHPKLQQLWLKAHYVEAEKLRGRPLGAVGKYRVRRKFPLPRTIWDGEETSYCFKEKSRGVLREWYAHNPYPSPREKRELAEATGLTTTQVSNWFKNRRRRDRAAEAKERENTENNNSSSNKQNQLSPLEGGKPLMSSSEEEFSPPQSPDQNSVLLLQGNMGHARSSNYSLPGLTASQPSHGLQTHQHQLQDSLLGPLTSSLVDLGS

binding (SIX1 (human)): binds
binding (SIX1-Q177R (human)): binds
B1: MEIS1-3xFLAG (protein, UniProt O00470 1-390)
chain: MAQRYDDLPHYGGMDGVGIPSTMYGDPHAARSMQPVHHLNHGPPLHSHQYPHTAHTNAMAPSMGSSVNDALKRDKDAIYGHPLFPLLALIFEKCELATCTPREPGVAGGDVCSSESFNEDIAVFAKQIRAEKPLFSSNPELDNLMIQAIQVLRFHLLELEKVHELCDNFCHRYISCLKGKMPIDLVIDDREGGSKSDSEDITRSANLTDQPSWNRDHDDTASTRSGGTPGPSSGGHTSHSGDNSSEQGDGLDNSVASPSTGDDDDPDKDKKRHKKRGIFPKVATNIMRAWLFQHLTHPYPSEEQKKQLAQDTGLTILQVNNWFINARRRIVQPMIDQSNRAVSQGTPYNPDGQPMGGFVMDGQQHMGIRAPGPMSGMGMNMGMEGQWHYM
